Results reported in publication PMC12411348.
These are yes or no findings as the source states them, for the method shown. Binding can be weak; no strength is given. For part of these data: In cells and extracts the contact can be indirect. Values belong to the substance of their own block, whether it stands above or below them.

Chains of the proteins cited; added tags and fusions are not shown. Lines headed by an entry give the natural chain unless they say otherwise; changes in a name come on top.
UniProt P40337: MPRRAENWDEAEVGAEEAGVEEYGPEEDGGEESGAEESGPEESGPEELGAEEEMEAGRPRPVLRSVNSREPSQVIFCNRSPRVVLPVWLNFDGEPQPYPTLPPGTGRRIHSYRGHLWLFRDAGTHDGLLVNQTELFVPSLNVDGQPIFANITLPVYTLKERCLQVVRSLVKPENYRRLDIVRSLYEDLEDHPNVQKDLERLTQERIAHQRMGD
UniProt Q9NQB0: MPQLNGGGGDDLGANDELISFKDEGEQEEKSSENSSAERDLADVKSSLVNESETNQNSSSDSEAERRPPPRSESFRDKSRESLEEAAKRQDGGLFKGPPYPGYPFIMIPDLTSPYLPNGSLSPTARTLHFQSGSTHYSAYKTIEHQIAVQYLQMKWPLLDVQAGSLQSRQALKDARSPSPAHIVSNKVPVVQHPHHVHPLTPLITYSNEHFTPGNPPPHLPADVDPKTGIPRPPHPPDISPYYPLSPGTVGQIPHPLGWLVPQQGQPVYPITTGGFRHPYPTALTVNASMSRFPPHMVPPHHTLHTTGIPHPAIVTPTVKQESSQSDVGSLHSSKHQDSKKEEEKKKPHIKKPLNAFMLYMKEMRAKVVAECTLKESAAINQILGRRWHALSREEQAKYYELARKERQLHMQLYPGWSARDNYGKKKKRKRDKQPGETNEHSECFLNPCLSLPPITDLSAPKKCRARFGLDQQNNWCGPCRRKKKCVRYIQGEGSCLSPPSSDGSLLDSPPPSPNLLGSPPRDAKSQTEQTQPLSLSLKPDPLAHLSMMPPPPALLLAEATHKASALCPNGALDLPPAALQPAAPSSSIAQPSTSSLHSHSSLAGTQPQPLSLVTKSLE

Columns and labels:
[1] = target: recombinant human pVHL (CUSABIO) (human) (UniProt P40337); experiment: SPR; BIAcore T200, pVHL immobilised on a CM5 chip by amine coupling (pH 4.5 sodium acetate), TCF7L2(1–456) as analyte at 0.36–1.82 μM in PBS, 10 μL/min, steady-state affinity analysis; both purified
[2] = target: endogenous TCF7L2 (human (endogenous in HEK293T)) (UniProt Q9NQB0); experiment: co-IP; endogenous proteins in HEK293T cells; IP lysis buffer (50 mM Tris–HCl pH 7.5, 150 mM NaCl, 1 mM EDTA, 10% glycerol, 1% Triton X-100), antibody overnight at 4 °C, Protein A/G agarose beads, immunoblot
[3] = target: pVHL expressed in transfected HEK293T cells for domain mapping (human) (UniProt P40337); experiment: co-IP; transfected HEK293T cells; IP lysis buffer (50 mM Tris–HCl pH 7.5, 150 mM NaCl, 1 mM EDTA, 10% glycerol, 1% Triton X-100), antibody overnight at 4 °C, Protein A/G agarose beads, immunoblot

binding [1]: binds
Substance: recombinant TCF7L2(1–456) (from UniProt Q9NQB0) (domain or fragment)

binding [2]: binds
Substance: endogenous von Hippel-Lindau protein (pVHL) (from UniProt P40337-1 1-213)

binding [3]: binds
Substance: TCF7L2 (328–415) (from UniProt Q9NQB0-7) (domain or fragment)
